This passage reports inhibition results from paper PMC12188530 (RSC Advances, 2025).

For this assay, the target named is T1, S. aureus ATCC 43300 Sortase A (Staphylococcus aureus, UniProt Q2FV99).
T1 sequence (Q2FV99 60-206): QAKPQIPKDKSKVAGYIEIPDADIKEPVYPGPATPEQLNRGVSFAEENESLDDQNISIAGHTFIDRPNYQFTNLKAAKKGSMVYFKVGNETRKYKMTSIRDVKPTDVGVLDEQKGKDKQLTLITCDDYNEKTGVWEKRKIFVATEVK
In words: Sortase A activity assay by FRET. The class given is biochemical.

With `CN1CCN(CCCN2c3ccccc3Sc3ccc(Cl)cc32)CC1` [Prochlorperazine dimaleate], testing at 128 µg/mL gave an inhibition of 47%.
